Measured values as given in article PMC3266853.
Results are given in words; binding and its absence hold for the method and conditions named. One block for each binder: values may come before it.

How the values were obtained:
[1] = molecular target: human Kif7 motor domain, Kif7 8-347 (human) (UniProt Q2M1P5); assay: SEC; analytical gel filtration, Superose 12 10/300 GL; 50 mM PIPES pH 7.0, 250 mM NaCl, 2 mM MgCl2, 1 mM DTT; flow rate 1 ml/min, 250 ul injected; column calibrated with proteins of known mass; both purified
[2] = molecular target: human Kif27 motor domain, Kif27 1-341 (human) (UniProt Q86VH2); assay: as above

binding [1]: no binding
B1: human Kif7 motor domain, Kif7 8-347 (domain or fragment, UniProt Q2M1P5 8-347)
chain: LPGAEEAPVRVALRVRPLLPKELLHGHQSCLQVEPGLGRVTLGRDRHFGFHVVLAEDAGQEAVYQACVQPLLEAFFEGFNATVFAYGQTGSGKTYTMGEASVASLLEDEQGIVPRAMAEAFKLIDENDLLDCLVHVSYLEVYKEEFRDLLEVGTASRDIQLREDERGNVVLCGVKEVDVEGLDEVLSLLEMGNAARHTGATHLNHLSSRSHTVFTVTLEQRGRAPSRLPRPAPGQLLVSKFHFVDLAGSERVLKTGSTGERLKESIQINSSLLALGNVISALGDPQRRGSHIPYRDSKITRILKDSLGGNAKTVMIACVSPSSSDFDETLNTLNYASRAQ

binding [2]: no binding
B2: human Kif27 motor domain, Kif27 1-341 (domain or fragment, UniProt Q86VH2 1-341)
chain: MEEIPVKVAVRIRPLLCKEALHNHQVCVRVIPNSQQVIIGRDRVFTFDFVFGKNSTQDEVYNTCIKPLVLSLIEGYNATVFAYGQTGSGKTYTIGGGHIASVVEGQKGIIPRAIQEIFQSISEHPSIDFNVKVSYIEVYKEDLRDLLELETSMKDLHIREDEKGNTVIVGAKECHVESAGEVMSLLEMGNAARHTGTTQMNEHSSRSHAIFTISICQVHKNMEAAEDGSWYSPRHIVSKFHFVDLAGSERVTKTGNTGERFKESIQINSGLLALGNVISALGDPRRKSSHIPYRDAKITRLLKDSLGGSAKTVMITCVSPSSSNFDESLNSLKYANRARNI
